Experimental data: PubChem BioAssay AID540276 (National Center for Advancing Translational Sciences (NCATS), 2011)
The whole screen tested about 300,000 compounds, of which about 5,400 (1.8%) were called active. This list was built around the results that the source calls inconclusive (neither active nor inactive); the mix of calls is not that of the screen. Calls follow the shape of the full dose curve; tested in HEK293 cells. Potencies beside an inconclusive call are fits to weak or partial responses and may not hold up.

test: qHTS for inhibitors of binding or entry into cells for Marburg Virus; details: Marburg virus pseudotyped entry inhibition, cell reporter; activity change, negative = inhibition: at 37.8 µM (top of the series) unless noted
% is scaled to controls: 0 for no effect and ±100 for the full control effect; potency is read from the fitted curve at half-maximal effect.

| SMILES | Potency | activity change, negative = inhibition |
| --- | --- | --- |
| COc1cc(NC(=O)c2ccco2)c(OC)cc1NC(=O)CCC(=O)Nc1cccc(C)c1C | inconclusive: 29.1 µM [inhibitor, single point] | – |
| Clc1ccc2c(c1)C1=C(C(c3ccncc3)O2)C(c2ccc(Br)cc2)n2ncnc2N1 (stereo not given) | active: 11.6 µM | – |
| CC(=O)c1cccc(NC(=S)NC2CC2)c1 | inconclusive: 1.58 µM [activator, partial curve, poor fit] | – |
| CCOc1ccc(CCNC(=O)c2cc(=O)[nH]c3ccc(S(=O)(=O)N(CC)CC)cc23)cc1OCC | inactive | – |
| CCN(CC1CCCO1)C(=O)CCc1nnc(Cc2ccc3c(c2)OCO3)o1 (stereo not given) | inconclusive: 22.4 µM [activator, single point] | – |
| COc1ccc(CCNc2nc3c(-c4cccc(C(F)(F)F)c4)nnn3c3ccccc23)cc1OC | inactive | – |
| O=C(NCc1ccc(F)cc1)c1noc2c1CCCCC2 | inconclusive: 2.06 µM [activator, partial curve, poor fit] | – |
| CC(NC(=O)CCCc1ccccc1)c1ccncc1 (stereo not given) | inactive | – |
| Cc1ccccc1OCC(=O)Nc1ccc(C(N)=O)cc1 | inactive | – |
| Cc1ccc(N=Cc2ccc(O)cc2O)cc1F | inconclusive: 8.2 µM [inhibitor, partial curve, poor fit] | – |
| N#Cc1c(-c2ccccc2)nc(-c2ccccc2)nc1N1CCOCC1 | inconclusive: 2.82 µM [inhibitor, partial curve] | – |
| O=C(CN1C(=O)c2ccccc2S1(=O)=O)c1ccc(O)c(O)c1 | inconclusive: 3.55 µM [inhibitor, partial curve, poor fit] | – |
| CCCCNC(=O)Cc1coc2ccc3ccccc3c12 | inconclusive: 18.3 µM [inhibitor, single point] | – |
| COc1cc(NC2c3ccccc3C(=O)N2c2ccc(C)cn2)cc(OC)c1OC (stereo not given) | inactive | – |
| CCCNC(=O)c1ccc(CN2CCc3ccccc3C2)cc1 | inactive | – |
| Cc1nc2ccccn2c1C(=O)CSc1ccccc1 | inconclusive: 35.5 µM [inhibitor, single point] | – |
| COc1ccc2c(c1)[nH]c1c(=O)n(CCN3CCCC3)cnc12 | inconclusive: 8.91 µM [inhibitor, single point] | – |
| O=C(CNC(c1ccccc1)c1ccccc1)Nc1ccc(F)cc1 | inconclusive: 8.2 µM [inhibitor, partial curve, poor fit] | – |
| CNS(=O)(=O)c1cccc(C(=O)OCCCOC(=O)c2cccc(S(=O)(=O)NC)c2)c1 | inactive | – |
| Clc1ccc(-c2cc3ncc4c(n3n2)-c2ccccc2OC4)cc1 | inactive | – |
| CC(Sc1nc2ccccc2c(=O)n1CC1CCCO1)C(=O)NC(C)c1ccccc1 (stereo not given) | inactive | – |
| O=C(Cc1ccccc1)N/N=C/c1cc(Br)cs1 | inactive | – |
| COc1ccc(CCNc2nc(C)nc3c2oc2ccccc23)cc1OC | active: 12.6 µM | – |
| Cc1ccc(-c2nnc3n2N=C(c2ccccc2Br)CS3)cc1 | inconclusive: 35.5 µM [inhibitor, single point] | – |
| CN1C(=O)C(=Cc2ccc(N3CCOCC3)o2)C(=O)N(C)C1=O | inconclusive: 6.31 µM [activator, single point] | – |

Ordered by formula weight (ascending): some entries from above

| SMILES | Potency | activity change, negative = inhibition |
| --- | --- | --- |
| Cc1ccc(-c2nnc3n2N=C(c2ccccc2Br)CS3)cc1 | inconclusive: 35.5 µM [inhibitor, single point] | – |
| COc1cc(NC(=O)c2ccco2)c(OC)cc1NC(=O)CCC(=O)Nc1cccc(C)c1C | inconclusive: 29.1 µM [inhibitor, single point] | – |
| CCOc1ccc(CCNC(=O)c2cc(=O)[nH]c3ccc(S(=O)(=O)N(CC)CC)cc23)cc1OCC | inactive | – |

Single entries from the list.
In Potency, COc1ccc(CCNc2nc3c(-c4cccc(C(F)(F)F)c4)nnn3c3ccccc23)cc1OC has inactive
In Potency, Clc1ccc2c(c1)C1=C(C(c3ccncc3)O2)C(c2ccc(Br)cc2)n2ncnc2N1 (stereo not given) has active: 11.6 µM

(listing goes on)

| SMILES | Potency | activity change, negative = inhibition |
| --- | --- | --- |
| COCCNC(=S)c1ccc(OC)cc1 | inconclusive: 25.1 µM [activator, partial curve, poor fit] | – |
| Clc1ccc(SCCOCCN2CCc3ccccc3C2)cc1 | inconclusive: 31.6 µM [inhibitor, single point] | – |
| CC(C)Cc1nc(Nc2ccccc2C#N)c2nnn(Cc3ccccc3)c2n1 | inconclusive: 11.2 µM [inhibitor, partial curve, poor fit] | – |
| CN(C)C/C=C/C(O)(c1ccccc1)c1ccccc1 | inconclusive: 35.5 µM [inhibitor, single point] | – |
| COc1cccc(C(=O)N(C)C(C)c2nc3ccccc3s2)c1 (stereo not given) | inactive | – |
| COc1ccc(CCNC(=O)C2CCC(=O)N(CC3CCCCC3)C2)cc1 (stereo not given) | inconclusive: 22.4 µM [inhibitor, single point] | – |
| Cc1ccc(NC(=O)[C@@H](NC(=O)c2cccc(S(=O)(=O)N3CCOCC3)c2)C(C)C)cc1C | inconclusive: 10 µM [inhibitor, partial curve] | – |
| CC12Cc3cn[nH]c3C=C1CCC1C2CCC2(C)C1CCC2(C)O (stereo not given) | inactive | – |
| Oc1ccc(Cn2ccnc2)c2cccnc12 | inconclusive: 35.5 µM [inhibitor, single point] | – |
| CCCCn1c(N)c(N(CC(C)C)C(=O)c2cc(S(=O)(=O)N3CCOCC3)ccc2Cl)c(=O)[nH]c1=O | inactive | – |
| c1ccc2c(CCNCc3ccc4c(c3)OCO4)c[nH]c2c1 | inconclusive: 29.1 µM [inhibitor, single point] | – |
| CCn1cc(C(=O)O)c(=O)c2cc(OC)ccc21 | inconclusive: 29.1 µM [activator, partial curve, poor fit] | – |
| CC1(C)NC(=O)N(CC(=O)OCC(=O)c2ccc(Br)s2)C1=O | inactive | – |
| CN1CN=C(N[N+](=O)[O-])N(Cc2ccco2)C1 | inactive | – |
| C=CCn1cc([N+](=O)[O-])nc1C | inconclusive: 2.82 µM [activator, single point] | – |
| CCCCOC(=O)c1ccc(NC(=O)c2cnccn2)cc1 | inactive | – |
| CC(=O)Nc1ccc(-c2cc(-c3ccccc3)nc(-c3ccccc3)n2)cc1 | inconclusive: 17.8 µM [inhibitor, single point] | – |
| O=C(Cc1nc2ccccc2[nH]1)c1ccc(Br)cc1 | inactive | – |
| O=C(NCCN1CCCCC1)c1cc(Cl)ccc1Cl | inactive | – |
| COc1cccc(NC(=O)C2CCN(c3ncccn3)CC2)c1 | inactive | – |
| CCOC(=O)c1oc2nc(CC(C)C)c3c(c2c1N)CCCC3 | inconclusive: 15.8 µM [inhibitor, single point] | – |
| CCOc1ccccc1NC(=O)CN1CCC(C(=O)c2ccc(F)cc2)CC1 | inconclusive: 35.5 µM [inhibitor, single point] | – |
| Cc1cc(=O)oc2cc(OCC(=O)OCC(=O)NCCc3ccccc3)ccc12 | inconclusive: 35.5 µM [activator, single point] | – |
| CCOC(=O)CCC(NC(=O)c1ccc(Nc2nc3ccccc3nc2C(=O)OCC)cc1)C(=O)OCC (stereo not given) | inconclusive: 0.316 µM [inhibitor, single point] | – |
| N#CC1=C(N)Oc2n[nH]c(-c3ccc(F)cc3)c2C1c1cccnc1 (stereo not given) | inactive | – |

| SMILES | Potency | activity change, negative = inhibition |
| --- | --- | --- |
| C=CCn1c(=O)c2c(nc(-c3ccc(S(=O)(=O)O)cc3)n2C)n(C)c1=O | inconclusive: 8.91 µM [activator, partial curve, poor fit] | – |
| CN1CCSc2ccc(C(=O)Nc3ccc(Cl)cc3)cc21 | inconclusive: 12.6 µM [inhibitor, partial curve, poor fit] | – |
| Cc1onc(-c2ccccc2)c1C(=O)Nc1cc(C(F)(F)F)ccc1N1CCOCC1 | inconclusive: 11.2 µM [inhibitor, partial curve, poor fit] | – |
| CCc1ccccc1NC(=O)Cn1nnc2sc3c(c2c1=O)CCC(C(C)(C)C)C3 (stereo not given) | inconclusive: 35.5 µM [inhibitor, single point] | – |
| CCN(CC)c1ccc(S(=O)(=O)N2CCOCC2)cc1NS(C)(=O)=O | inconclusive: 11.2 µM [inhibitor, single point] | – |
| O=C(CN(C(=O)CCC(=O)Nc1nccs1)c1ccc(F)cc1)NCc1ccc2c(c1)OCO2 | inconclusive: 0.708 µM [inhibitor, full curve, poor fit] | – |
| Cc1cc(-n2c(C)cc(C(=O)COc3ccccc3[N+](=O)[O-])c2C)no1 | inactive | – |
| COc1ccc2c(CC(=O)NCc3cccs3)coc2c1 | inactive | – |
| COc1ccccc1NS(=O)(=O)c1ccc(NC(=O)c2ccncc2)cc1 | inconclusive: 10 µM [inhibitor, partial curve] | – |
| CCc1cc(/C(Cc2ccccn2)=N\Nc2ccccc2)c(O)cc1O | inactive | – |
| Cc1ccc(C)c(NC(=O)Cc2coc3cc(C)cc(C)c23)c1 | inconclusive: 3.16 µM [inhibitor, single point] | – |
| CC(C)c1ccc(N(CCc2ccccn2)C(=O)C(C)(C)C)cc1 | inconclusive: 35.5 µM [inhibitor, single point] | – |
| Cc1ccc(-c2nnn(CC(=O)N(c3cccc(F)c3)C(C(=O)NC(C)(C)C)c3ccco3)n2)o1 (stereo not given) | – | inconclusive: 2.51% [activator] [at 46.1 µM] |
| COC(=O)c1ccc(/C=N/NC(=O)CNc2cccc(C)c2)cc1 | inactive | – |
| CCOc1ccc(NC(=O)C(=S)NC2CCCCC2)cc1 | inconclusive: 35.5 µM [activator, single point] | – |
| Cc1ccccc1OC(=O)c1cc(-c2ccc3c(c2)OCCO3)on1 | inactive | – |
| COC(=O)c1c(C)n(-c2ccccc2)c2ccc(O)cc12 | inconclusive: 29.1 µM [inhibitor, single point] | – |
| COc1ccccc1N1CCN(C(=O)C(C)N(c2ccc(C)c(C)c2)S(C)(=O)=O)CC1 (stereo not given) | inactive | – |
| O=C(Nc1cccn(Cc2c(Cl)cccc2Cl)c1=O)c1ccc(Cl)cc1Cl | inactive | – |
| CC(CCc1ccc(O)cc1)N1CCC(Oc2ccc(C(=O)N3CCCC3)cc2)CC1 (stereo not given) | inactive | – |
| Cc1ccc(-c2nc(NCc3ccco3)c3ccccc3n2)cc1 | inactive | – |
| O=C(Nc1ccccc1C(=O)O)c1ccccc1 | inactive | – |
| COc1ccc(/C=C(\NC(=O)c2ccccc2)C(=O)N/N=C/c2ccncc2)cc1 | inconclusive: 6.51 µM [inhibitor, partial curve, poor fit] | – |
| O=C(OCc1ccccc1)N1CCCC1/C=C/CN1CCOCC1 (stereo not given) | inactive | – |
| CCCCC(=O)Nc1cc2nn(-c3ccc(OC)cc3)nc2cc1C | inactive | – |
